Reference: PubChem BioAssay AID743458 (Peter MacCallum Cancer Centre, 2014)
Purpose: 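Identify genes whose loss lifts vorinostat resistance in colon cancer cells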 (follow-up of hits). Cell system: human HCT116-VR colon cancer cells made resistant to vorinostat. Reagents: single siRNA or pool against human genes, 25 nM per single siRNA. Timing: about 72 h after transfection, including 24 h of drug. Challenge: vorinostat, 2.5 µM final, for 24 h. Read-out: 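Cell viability by fluorescence and apoptosis by caspase 3/7 luminescence under vorinostat, background-corrected, averaged across two plate copies and given as fold change versus mock transfection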. Direction: viability relative to mock: higher = more living cells than mock; caspase activity relative to mock: higher = more apoptosis than mock. Call rule: 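Active means a reduced-viability or caspase-activation class, anything else inactive; classes could only be given to wells that looked healthy when left untreated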.
The whole screen tested about 1,800 reagents; this is a part drawn at random. In the full data, 732 (41%) are marked active. 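Calls are per siRNA reagent; a gene was deemed confirmed only if most of its four siRNAs scored.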

ANKRD13C-DT (ANKRD13C divergent transcript) [SID134283837] → viability relative to mock: 0.78; caspase activity relative to mock: 4.31; viability hit class: no change; caspase hit class: caspase activation; Outcome: active
ANKRD13C-DT (ANKRD13C divergent transcript) [SID134283838] → viability relative to mock: 0.86; caspase activity relative to mock: 1.17; viability hit class: no change; caspase hit class: no change; Outcome: inactive
ANKRD13C-DT (ANKRD13C divergent transcript) [SID134283839] → viability relative to mock: 0.55; caspase activity relative to mock: 4.48; viability hit class: reduced viability; caspase hit class: caspase activation; Outcome: active
ANKRD13C-DT (ANKRD13C divergent transcript) [SID134283840] → viability relative to mock: 0.58; caspase activity relative to mock: 3.57; viability hit class: no change; caspase hit class: caspase activation; Outcome: active
CES3 (carboxylesterase 3) [SID135619899] → viability relative to mock: 0.55; caspase activity relative to mock: 3.69; viability hit class: reduced viability; caspase hit class: caspase activation; Outcome: active
CES3 (carboxylesterase 3) [SID135619900] → viability relative to mock: 0.72; caspase activity relative to mock: 1.56; viability hit class: no change; caspase hit class: no change; Outcome: inactive
CES3 (carboxylesterase 3) [SID135619901] → viability relative to mock: 0.72; caspase activity relative to mock: 1.68; viability hit class: no change; caspase hit class: no change; Outcome: inactive
CES3 (carboxylesterase 3) [SID135619902] → viability relative to mock: 0.17; caspase activity relative to mock: 2.3; viability hit class: reduced viability; caspase hit class: no change; Outcome: active
EIF2B5 (eukaryotic translation initiation factor 2B subunit epsilon) [SID134257273] → viability relative to mock: 0.56; caspase activity relative to mock: 0.78; viability hit class: reduced viability; caspase hit class: no change; Outcome: active
EIF2B5 (eukaryotic translation initiation factor 2B subunit epsilon) [SID134257275] → viability relative to mock: 0.45; caspase activity relative to mock: 1.55; viability hit class: reduced viability; caspase hit class: no change; Outcome: active
EIF2B5 (eukaryotic translation initiation factor 2B subunit epsilon) [SID135613802] → viability relative to mock: 0.47; caspase activity relative to mock: 0.84; viability hit class: reduced viability; caspase hit class: no change; Outcome: active
EIF2B5 (eukaryotic translation initiation factor 2B subunit epsilon) [SID135613803] → viability relative to mock: 0.57; caspase activity relative to mock: 1.04; viability hit class: no change; caspase hit class: no change; Outcome: inactive

2 entries from above, reformatted:
gene | PubChem SID | viability relative to mock | caspase activity relative to mock | viability hit class | caspase hit class | Outcome
ANKRD13C-DT (ANKRD13C divergent transcript) | SID134283839 | 0.55 | 4.48 | reduced viability | caspase activation | active
ANKRD13C-DT (ANKRD13C divergent transcript) | SID134283840 | 0.58 | 3.57 | no change | caspase activation | active
